PubChem BioAssay AID1259254 | NCATS, 2017
The whole screen tested about 59,000 reagents; shown is a random part of them. In the full data, about 1,550 (2.6%) got an active call. 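G2 share is only a proxy for re-replication; each gene was hit by three separate siRNAs, and active genes were retested.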 Raw values are not corrected between plates. The numbers tell different reagents against one gene apart. Not stated in the record: the amount of reagent.

Screen: 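Genome-wide screen for genes that prevent DNA re-replication in cancer cells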 (primary screen)
Cell system: human HCT116 colorectal cancer cells
Knock-down reagent: single siRNA against human genes
Timing: 3 days
Read-out: 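Imaged Hoechst DNA stain sorts each cell into a cycle phase by DNA amount; per plate, G2 fraction set to 0% for non-targeting and 100% for GMNN siRNA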
Reading the numbers: G2 robust z-score and G2 cells, % of GMNN control: higher = more G2 cells, more excess DNA replication; raw share of cells in G2: higher = larger share of cells with G2 DNA content
Active means: 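An siRNA counts as active if its G2 robust z-score lies at least 5 MADs above the screen median; here such calls match roughly 38% of GMNN control or more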

| G2 robust z-score | G2 cells, % of GMNN control | raw share of cells in G2 (%) | Call | target | reagent no. |
| --- | --- | --- | --- | --- | --- |
| 0.486 | 6.39 | 5.97 | inactive | FLJ40288 (Putative uncharacterized protein FLJ40288) | 1 |
| 0.226 | 4.56 | 4.81 | inactive | FLJ40288 (Putative uncharacterized protein FLJ40288) | 2 |
| -0.934 | -3.61 | 2.17 | inactive | FLJ40288 (Putative uncharacterized protein FLJ40288) | 3 |
| 0.308 | 5.14 | 4.86 | inactive | ZNF573 (zinc finger protein 573) | 1 |
| -0.457 | -0.249 | 3.08 | inactive | ZNF573 (zinc finger protein 573) | 2 |
| 1.41 | 12.9 | 8.05 | inactive | ZNF573 (zinc finger protein 573) | 3 |
| 2.88 | 23.2 | 12.8 | inactive | CAMK1D (calcium/calmodulin dependent protein kinase ID) | 1 |
| -1.58 | -8.16 | 2.22 | inactive | CAMK1D (calcium/calmodulin dependent protein kinase ID) | 2 |
| -0.218 | 1.44 | 4.14 | inactive | CAMK1D (calcium/calmodulin dependent protein kinase ID) | 3 |
| 0.23 | 4.59 | 5.29 | inactive | GBX2 (gastrulation brain homeobox 2) | 1 |
| 5.28 | 40.1 | 19.8 | active | GBX2 (gastrulation brain homeobox 2) | 2 |
| -0.331 | 0.64 | 5.51 | inactive | GBX2 (gastrulation brain homeobox 2) | 3 |
| 0.775 | 8.42 | 4.68 | inactive | SKIC8 (SKI8 subunit of superkiller complex) | 1 |
| 4.9 | 37.5 | 20 | inactive | SKIC8 (SKI8 subunit of superkiller complex) | 2 |
| -0.0941 | 2.31 | 5.31 | inactive | SKIC8 (SKI8 subunit of superkiller complex) | 3 |
| -0.642 | -1.55 | 4.63 | inactive | MCRS1 (microspherule protein 1) | 1 |
| 0.137 | 3.93 | 5.58 | inactive | MCRS1 (microspherule protein 1) | 2 |
| 0.44 | 6.06 | 5.61 | inactive | MCRS1 (microspherule protein 1) | 3 |
| -0.368 | 0.375 | 3.94 | inactive | DPH5 (diphthamide biosynthesis 5) | 1 |
| -0.512 | -0.636 | 5.66 | inactive | DPH5 (diphthamide biosynthesis 5) | 2 |
| 1.68 | 14.8 | 9.71 | inactive | DPH5 (diphthamide biosynthesis 5) | 3 |
| 0.747 | 8.22 | 8.32 | inactive | STK24 (serine/threonine kinase 24) | 1 |
| -1.28 | -6.01 | 3.38 | inactive | STK24 (serine/threonine kinase 24) | 2 |
| -1.11 | -4.87 | 2.31 | inactive | STK24 (serine/threonine kinase 24) | 3 |
| 0.134 | 3.91 | 6.9 | inactive | PIK3C2B | 1 |
| -1.37 | -6.68 | 3.16 | inactive | PIK3C2B | 2 |
| -0.26 | 1.14 | 4.42 | inactive | PIK3C2B | 3 |
| 1.63 | 14.4 | 10.4 | inactive | RCC1L (RCC1 like) | 1 |
| -0.348 | 0.522 | 4.53 | inactive | RCC1L (RCC1 like) | 2 |
| 0.483 | 6.37 | 4.12 | inactive | RCC1L (RCC1 like) | 3 |
| 0.307 | 5.13 | 5.56 | inactive | RCC1L (RCC1 like) | 4 |
| -0.713 | -2.05 | 2.42 | inactive | RCC1L (RCC1 like) | 5 |
| -0.647 | -1.58 | 2.31 | inactive | RCC1L (RCC1 like) | 6 |
| 0.813 | 8.69 | 9.24 | inactive | SRPRB (SRP receptor subunit beta) | 1 |
| -1.49 | -7.5 | 1.5 | inactive | SRPRB (SRP receptor subunit beta) | 2 |
| 2.76 | 22.4 | 12.3 | inactive | SRPRB (SRP receptor subunit beta) | 3 |
| 0.128 | 3.87 | 4.98 | inactive | RASGEF1A (RasGEF domain family member 1A) | 1 |
| 1.9 | 16.4 | 8.73 | inactive | RASGEF1A (RasGEF domain family member 1A) | 2 |
| 1.07 | 10.5 | 6.55 | inactive | RASGEF1A (RasGEF domain family member 1A) | 3 |
| 0.0361 | 3.22 | 6.13 | inactive | STMND1 (stathmin domain containing 1) | 1 |
| -1.13 | -5.01 | 1.99 | inactive | STMND1 (stathmin domain containing 1) | 2 |
| -0.178 | 1.72 | 4.2 | inactive | STMND1 (stathmin domain containing 1) | 3 |
| -0.542 | -0.843 | 4.65 | inactive | PXMP4 (peroxisomal membrane protein 4) | 1 |
| 0.149 | 4.01 | 5.79 | inactive | PXMP4 (peroxisomal membrane protein 4) | 2 |
| -0.0306 | 2.75 | 4.2 | inactive | PXMP4 (peroxisomal membrane protein 4) | 3 |
| 0.658 | 7.6 | 8.58 | inactive | HMX2 (H6 family homeobox 2) | 1 |
| 0.43 | 6 | 6.4 | inactive | HMX2 (H6 family homeobox 2) | 2 |
| -0.0625 | 2.53 | 5.96 | inactive | HMX2 (H6 family homeobox 2) | 3 |
| -0.361 | 0.428 | 2.91 | inactive | MIPEPP3 (mitochondrial intermediate peptidase pseudogene 3) | 1 |
| 0.905 | 9.33 | 7.39 | inactive | MIPEPP3 (mitochondrial intermediate peptidase pseudogene 3) | 2 |
| -0.295 | 0.892 | 3.5 | inactive | MIPEPP3 (mitochondrial intermediate peptidase pseudogene 3) | 3 |
| 0.81 | 8.66 | 5.79 | inactive | ZAR1L (zygote arrest 1 like) | 1 |
| 0.0297 | 3.18 | 4.97 | inactive | ZAR1L (zygote arrest 1 like) | 2 |
| -0.795 | -2.63 | 2.25 | inactive | ZAR1L (zygote arrest 1 like) | 3 |
| 0.247 | 4.71 | 7.6 | inactive | LRFN4 | 1 |
| 0.0359 | 3.22 | 5.49 | inactive | LRFN4 | 2 |
| -1.02 | -4.23 | 2.69 | inactive | LRFN4 | 3 |
| -0.788 | -2.57 | 2.69 | inactive | KRTAP2-1 (keratin associated protein 2-1) | 1 |
| -0.396 | 0.178 | 2.46 | inactive | KRTAP2-1 (keratin associated protein 2-1) | 2 |
| -0.342 | 0.56 | 4.29 | inactive | KRTAP2-1 (keratin associated protein 2-1) | 3 |
| 1.16 | 11.1 | 9.28 | inactive | GEM (GTP binding protein overexpressed in skeletal muscle) | 1 |
| 5.41 | 41 | 20.9 | active | GEM (GTP binding protein overexpressed in skeletal muscle) | 2 |
| 0.0257 | 3.15 | 4.78 | inactive | GEM (GTP binding protein overexpressed in skeletal muscle) | 3 |
| -0.169 | 1.78 | 4.17 | inactive | PSMD8 (proteasome 26S subunit, non-ATPase 8) | 1 |
| 3.52 | 27.7 | 17.8 | inactive | PSMD8 (proteasome 26S subunit, non-ATPase 8) | 2 |
| 4.48 | 34.5 | 15.6 | inactive | PSMD8 (proteasome 26S subunit, non-ATPase 8) | 3 |
| -0.29 | 0.927 | 3.95 | inactive | RNF208 (ring finger protein 208) | 1 |
| -0.51 | -0.618 | 3.31 | inactive | RNF208 (ring finger protein 208) | 2 |
| 2.18 | 18.3 | 9.32 | inactive | RNF208 (ring finger protein 208) | 3 |

Entries above with an active call, once more:
| G2 robust z-score | G2 cells, % of GMNN control | raw share of cells in G2 (%) | Call | target | reagent no. |
| --- | --- | --- | --- | --- | --- |
| 5.28 | 40.1 | 19.8 | active | GBX2 (gastrulation brain homeobox 2) | 2 |
| 5.41 | 41 | 20.9 | active | GEM (GTP binding protein overexpressed in skeletal muscle) | 2 |
